## Results of single-concentration screens

The chains behind the UniProt entries cited, without tags or fusion partners. Residues count along the entry.
UniProt P9WPC5, whole entry: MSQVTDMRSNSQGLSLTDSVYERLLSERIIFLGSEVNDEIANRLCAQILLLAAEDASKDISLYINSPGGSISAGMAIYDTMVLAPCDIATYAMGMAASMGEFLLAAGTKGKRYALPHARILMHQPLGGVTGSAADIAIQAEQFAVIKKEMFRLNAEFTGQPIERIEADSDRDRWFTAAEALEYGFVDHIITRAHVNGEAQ
UniProt P9WPC3, whole entry partner: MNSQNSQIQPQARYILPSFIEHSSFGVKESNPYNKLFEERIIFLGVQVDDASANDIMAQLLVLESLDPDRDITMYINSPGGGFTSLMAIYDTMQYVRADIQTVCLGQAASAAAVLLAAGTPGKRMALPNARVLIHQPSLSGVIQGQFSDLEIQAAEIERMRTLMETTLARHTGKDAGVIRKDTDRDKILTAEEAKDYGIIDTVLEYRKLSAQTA
UniProt I6X8D2, whole entry: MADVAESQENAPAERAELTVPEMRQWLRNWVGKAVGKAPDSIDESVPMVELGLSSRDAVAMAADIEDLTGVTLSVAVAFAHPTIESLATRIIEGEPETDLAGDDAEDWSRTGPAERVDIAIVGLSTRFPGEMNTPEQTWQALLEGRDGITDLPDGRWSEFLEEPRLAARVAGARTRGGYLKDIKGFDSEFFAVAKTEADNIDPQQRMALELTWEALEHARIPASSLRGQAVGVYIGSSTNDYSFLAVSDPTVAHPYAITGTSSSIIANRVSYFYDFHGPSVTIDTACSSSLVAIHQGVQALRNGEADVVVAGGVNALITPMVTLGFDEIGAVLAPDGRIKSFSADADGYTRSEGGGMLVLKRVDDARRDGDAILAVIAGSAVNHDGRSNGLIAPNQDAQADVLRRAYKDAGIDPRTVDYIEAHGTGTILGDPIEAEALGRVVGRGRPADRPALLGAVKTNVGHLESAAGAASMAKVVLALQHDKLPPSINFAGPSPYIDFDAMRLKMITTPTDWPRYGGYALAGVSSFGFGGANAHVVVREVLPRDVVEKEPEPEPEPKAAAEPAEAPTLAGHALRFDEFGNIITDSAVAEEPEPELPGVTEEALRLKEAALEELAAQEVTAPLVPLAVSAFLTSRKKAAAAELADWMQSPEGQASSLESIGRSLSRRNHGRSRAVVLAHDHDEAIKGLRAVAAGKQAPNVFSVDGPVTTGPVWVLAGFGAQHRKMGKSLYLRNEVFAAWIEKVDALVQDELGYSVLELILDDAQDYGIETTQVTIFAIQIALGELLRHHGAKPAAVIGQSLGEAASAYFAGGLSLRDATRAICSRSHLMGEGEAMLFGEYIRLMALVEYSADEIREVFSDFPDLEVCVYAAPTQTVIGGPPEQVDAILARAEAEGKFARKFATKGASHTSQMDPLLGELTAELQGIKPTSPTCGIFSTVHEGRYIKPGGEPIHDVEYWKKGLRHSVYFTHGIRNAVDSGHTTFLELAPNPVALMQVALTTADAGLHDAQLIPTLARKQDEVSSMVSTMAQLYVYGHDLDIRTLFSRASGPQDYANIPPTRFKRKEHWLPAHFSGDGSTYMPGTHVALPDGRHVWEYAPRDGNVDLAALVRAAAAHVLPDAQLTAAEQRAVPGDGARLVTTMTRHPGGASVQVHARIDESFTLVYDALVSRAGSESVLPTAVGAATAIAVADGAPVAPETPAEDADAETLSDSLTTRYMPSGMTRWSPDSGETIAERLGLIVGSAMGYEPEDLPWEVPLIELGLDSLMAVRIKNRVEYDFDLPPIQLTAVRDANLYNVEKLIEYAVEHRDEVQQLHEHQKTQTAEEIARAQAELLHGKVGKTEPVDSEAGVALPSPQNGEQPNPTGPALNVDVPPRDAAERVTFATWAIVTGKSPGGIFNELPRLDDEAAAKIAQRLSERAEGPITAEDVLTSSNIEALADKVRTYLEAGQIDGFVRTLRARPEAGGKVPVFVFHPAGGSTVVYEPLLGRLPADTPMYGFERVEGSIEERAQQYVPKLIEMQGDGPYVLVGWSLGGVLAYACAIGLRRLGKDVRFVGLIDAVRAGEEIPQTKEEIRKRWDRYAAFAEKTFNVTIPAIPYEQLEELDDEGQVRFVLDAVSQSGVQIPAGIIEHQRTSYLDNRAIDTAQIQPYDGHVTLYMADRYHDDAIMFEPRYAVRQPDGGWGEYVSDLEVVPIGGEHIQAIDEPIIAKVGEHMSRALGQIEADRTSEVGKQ
UniProt P9WNZ1, whole entry: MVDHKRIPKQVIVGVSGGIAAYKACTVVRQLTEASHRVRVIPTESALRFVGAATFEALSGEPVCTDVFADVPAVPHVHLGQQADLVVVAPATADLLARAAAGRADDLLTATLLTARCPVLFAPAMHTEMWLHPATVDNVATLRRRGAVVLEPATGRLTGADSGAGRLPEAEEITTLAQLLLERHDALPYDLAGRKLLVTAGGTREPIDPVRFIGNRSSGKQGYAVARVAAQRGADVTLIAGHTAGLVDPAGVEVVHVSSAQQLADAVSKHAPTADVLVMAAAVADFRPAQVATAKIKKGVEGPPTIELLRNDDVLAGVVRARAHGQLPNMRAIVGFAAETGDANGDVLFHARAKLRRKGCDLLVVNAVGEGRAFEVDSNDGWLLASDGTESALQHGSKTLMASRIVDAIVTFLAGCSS
UniProt A4I591, 1-473: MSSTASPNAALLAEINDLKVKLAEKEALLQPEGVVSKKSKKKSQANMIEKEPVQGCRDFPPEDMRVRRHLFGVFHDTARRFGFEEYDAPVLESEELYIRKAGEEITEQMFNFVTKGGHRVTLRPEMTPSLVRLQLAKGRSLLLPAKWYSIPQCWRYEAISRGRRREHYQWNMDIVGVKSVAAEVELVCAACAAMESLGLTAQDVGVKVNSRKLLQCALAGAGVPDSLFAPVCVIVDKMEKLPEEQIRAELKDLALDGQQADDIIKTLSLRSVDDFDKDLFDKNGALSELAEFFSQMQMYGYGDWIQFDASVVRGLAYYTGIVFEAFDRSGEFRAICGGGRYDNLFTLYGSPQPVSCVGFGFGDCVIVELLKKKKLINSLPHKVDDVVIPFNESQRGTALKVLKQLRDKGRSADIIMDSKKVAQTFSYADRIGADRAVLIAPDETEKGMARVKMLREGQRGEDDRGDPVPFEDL
UniProt Q4DA54, 1-478: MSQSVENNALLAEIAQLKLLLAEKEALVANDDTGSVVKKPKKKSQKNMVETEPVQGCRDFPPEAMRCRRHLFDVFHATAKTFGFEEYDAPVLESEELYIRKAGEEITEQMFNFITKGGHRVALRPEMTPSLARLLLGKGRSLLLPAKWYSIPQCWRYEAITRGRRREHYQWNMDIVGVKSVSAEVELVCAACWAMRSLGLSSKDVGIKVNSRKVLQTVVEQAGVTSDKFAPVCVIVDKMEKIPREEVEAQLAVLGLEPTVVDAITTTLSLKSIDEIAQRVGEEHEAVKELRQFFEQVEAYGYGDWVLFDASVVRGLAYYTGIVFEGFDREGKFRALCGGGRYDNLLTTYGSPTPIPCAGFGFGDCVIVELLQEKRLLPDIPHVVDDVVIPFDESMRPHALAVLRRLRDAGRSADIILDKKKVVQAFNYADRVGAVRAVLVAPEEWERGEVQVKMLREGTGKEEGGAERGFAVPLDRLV

From ChEMBL document CHEMBL3988442, “University of Dundee, Small-Polar-MMV Screening Library” (2021).

A: 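Protease assay of ClpP1P2, read by the AMC dye that it sets free. Target: ClpP1P2, Mycobacterium tuberculosis (UniProt P9WPC5 and UniProt P9WPC3). Concentration: 50 µM. Direction is inferred from only a few compounds that gave an IC50; most scored high, so higher reads as stronger inhibition. Most other retested compounds had strongly negative values. About 69,000 compounds were tested under these conditions; 0.015% (about 10) showed 50% or more at least once.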
B: 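Polyketide synthase Pks13, Mycobacterium tuberculosis (UniProt I6X8D2). Enzyme assay of the thioesterase domain of polyketide synthase 13; the read-out is not stated. Concentration: 30 µM. Higher reads as stronger inhibition (inferred from which compounds were picked for retests). Of about 67,000 compounds tested this way, about 300 (0.46%) reached 50% or more in at least one test.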
C: 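Enzyme assay of CoaBC with a phosphate dye (Biomol Green) read at 650 nm. Target: Coenzyme A biosynthesis protein CoaBC, Mycobacterium tuberculosis (UniProt P9WNZ1). Tested at 30 µM. Direction is inferred from only a few compounds that gave an IC50; most scored high, so higher reads as stronger inhibition. Most strong results did not repeat in a second test. Size under these conditions: about 67,000 compounds, about 40 of them at 50% or above in at least one test.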
D: 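Histidine-tRNA ligase, Leishmania infantum (UniProt A4I591). Enzyme assay of histidyl-tRNA synthetase; the read-out is not stated. Concentration: 30 µM. The record gives no direction; compounds that gave an IC50 in retests scored well above the rest, so higher reads as stronger inhibition. The assay is labelled LdHisRS but filed under L. infantum. Size under these conditions: about 69,000 compounds, about 410 of them at 50% or above in at least one test.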
E: 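Enzyme assay of histidyl-tRNA synthetase; the read-out is not stated. Target: Histidine-tRNA ligase, Trypanosoma cruzi CL Brener (UniProt Q4DA54). Compounds at 30 µM. Direction is inferred from retests: higher values go with stronger inhibition. Size under these conditions: about 69,000 compounds, about 31 of them at 50% or above in at least one test.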

The filed quantity is “Percent Effect” (%).
The controls that fix the scale are not given in the record; negative values are as filed.
This is an unselected part of the compounds tested.

* Cc1cc(-c2nn(C)c(Cl)c2CN2CCCCC(N)C2)no1 (centres undefined) | A: -2.105%; B: -10.44%; C: -40.48%; D: 11.11%; E: 3.061%
* Cc1csc(Nc2nccnc2C2CCCN2C(=O)C(C)C)n1 (centres undefined) | A: 14.08%; B: 3.348%; C: 4.058%; D: 8.571%; E: 2.151%
* CCC(O)CN1CCN(C(=O)Cc2nc(-c3ccco3)oc2C)CC1 (centres undefined) | A: -3.017%; B: 4.439%; C: 7.559%; D: 6.612%; E: -0.8403%
* Cc1csc(C(Cc2ccsc2)NC(=O)CN(C)Cc2ccccn2)n1 (centres undefined) | A: -50.22%; B: -48.07%; C: 4.566%; D: 13.42%; E: 2.571%
* CN(C)C(=O)NCc1nnc2n1CCN(Cc1ccsc1)C2 | A: -7.245%; B: 8.719%; C: -2.664%; D: 20%; E: 10.34%
* O=C1O[C@@H]2CN(Cc3cc4ccccc4o3)C[C@@H]2N1Cc1ccccn1 | A: -11.33%; B: -38.89%; C: 2.066%; D: 0%; E: 8.152%
* CC(=O)NCCNC(=O)C1(N2CCCCC2)Cc2ccccc2C1 | A: -10.9%; B: -9.037%; C: 5.34%; D: -2.41%; E: 3.867%
* COc1cc(CN2CCC3(CC(Nc4ccncn4)C3)C2)cc(OC)c1 (centres undefined) | A: -12.01%; B: 3.77%; C: 3.39%; D: 20.62%; E: 14.44%
* O=S(=O)(CC1CCCN1S(=O)(=O)c1cccnc1)c1ccccc1 (centres undefined) | A: -14.81%; B: -2.741%; C: -1.211%; D: 10.87%; E: 8%
* Cc1ncc(CN(C)C)c(C2CCCN2c2ncccn2)n1 (centres undefined) | A: 18.79%; B: -4.456%; C: 13.99%; D: 11.35%; E: 12.41%
* Cc1ccc(F)c(S(=O)(=O)NCc2cccc(N3CCOC3=O)c2)c1 | A: -15.84%; B: -78.54%; C: 9.96%; D: 24.66%; E: 0%
* c1csc(CN2CC[C@H]3O[C@@H](COCC4CC4)CC[C@H]32)c1 | A: -4.013%; B: -37.42%; C: -3.09%; D: 5%; E: 5.102%
* CCn1c(N)nc2cc(C(=O)N3Cc4ccccc4C3)cnc21 | A: -7.284%; B: -7.945%; C: 11.82%; D: -2.74%; E: 4.865%
* O=C(CN(CC(O)c1ccc(F)cc1)C1CC1)NC1CCOCC1 (centres undefined) | A: -2.186%; B: -5.662%; C: 1.152%; D: 22.22%; E: 5.521%
* CN(CCCc1cnn(C)c1)C(=O)C1COc2ccccc2C1 (centres undefined) | A: 6.857%; B: -20.58%; C: -3.198%; D: 13.46%; E: 5.785%
* O=C(c1ccc2nncn2c1)N1CCSC2(CCCCC2)C1 | A: 0.2933%; B: 44.52%; C: -4.481%; D: -2.941%; E: 4.762%
* CCC(CO)NC(=O)NCc1cc(C#N)ccc1F (centres undefined) | A: 0.3104%; B: -33.84%; C: 5.357%; D: 4.167%; E: 3.867%
* N#CCCN(C(=O)CN1CCCC1C1CCCCC1)c1ccccc1 (centres undefined) | A: 10.7%; B: -9.498%; C: 5.176%; D: 11.54%; E: 5.882%
* COCCc1noc(CN(C)C2CCCN(c3ccc(C)nn3)C2)n1 (centres undefined) | A: 1.217%; B: -4.41%; C: -6.696%; D: 8.738%; E: 7.884%
* Cc1cccc(C(C)C)c1NC(=O)NCCN(C(C)C)C(C)C | A: 7.391%; B: -9.898%; C: 4.317%; D: 8.333%; E: -1.739%
* O=C1NCCN2CCN(Cc3ccc(Cl)c(Cl)c3)CC12 (centres undefined) | A: -5.294%; B: -5.982%; C: 6.265%; D: 18.6%; E: 13.1%
* CCn1nc(CC(C)C)cc1C(=O)N1CC[C@@H](O)C1 | A: -10.78%; B: -16.56%; C: 4.911%; D: 14.56%; E: -2.075%
* CN1CCN(Cc2cnc3n2CCN(C(=O)c2cnccn2)C3)CC1 | A: -11.28%; B: -21.85%; C: 4.315%; D: 8.824%; E: 3.941%
* COCCn1ccnc1-c1cc(CN2CCCCC2)cs1 | A: 10.45%; B: -12.89%; C: 2.941%; D: 11.11%; E: 8.333%
* Cc1ncccc1NC(=O)[C@@H]1CCO[C@@H]2CCN(c3ccccc3)C[C@@H]21 | A: -18.74%; B: 15.85%; C: 5.212%; D: 28.85%; E: 7.263%
* CN(CCNc1cc(N2CCCC2CO)ncn1)Cc1ccccc1 (centres undefined) | A: 16.05%; B: 22.33%; C: -0.1266%; D: 3.614%; E: 4.878%
* CN1CC[C@H]2[C@H](C[C@@H](CN3CCCC3)N2c2nccs2)C1 | A: -4.049%; B: -14.31%; C: -3.515%; D: 9.615%; E: 8.38%